Laboratory results reported in article PMC5621702.
Results are given in words; binding and its absence hold for the method and conditions named. Binding calls can cover weak binding; strength is not graded here.

Molecular target: retinoid X receptor (RXR)
Experiment: native gel or EMSA; 32P-labelled oligonucleotide probes with the mouse Gata1 TRE1 or TRE2; TRα1 made by in vitro transcription/translation, in increasing concentrations; bands of TR/RXR heterodimers on the DNA, supershifted by anti-TRα1 or anti-TRα1PV antibodies, competed by unlabelled TRE

B1: thyroid hormone receptor α1 (TRα1) (receptor, UniProt P63058-2 1-410)
chain: MEQKPSKVECGSDPEENSARSPDGKRKRKNGQCPLKSSMSGYIPSYLDKDEQCVVCGDKATGYHYRCITCEGCKGFFRRTIQKNLHPTYSCKYDSCCVIDKITRNQCQLCRFKKCIAVGMAMDLVLDDSKRVAKRKLIEQNRERRRKEEMIRSLQQRPEPTPEEWDLIHVATEAHRSTNAQGSHWKQRRKFLPDDIGQSPIVSMPDGDKVDLEAFSEFTKIITPAITRVVDFAKKLPMFSELPCEDQIILLKGCCMEIMSLRAAVRYDPESDTLTLSGEMAVKREQLKNGGLGVVSDAIFELGKSLSAFNLDDTEVALLQAVLLMSTDRSGLLCVDKIEKSQEAYLLAFEHYVNHRKHNIPHFWPKLLMKVTDLRMIGACHASRFLHMKVECPTELFPPLFLEVFEDQEV
For B1, the binding was “binds”.
